Our source for the binding values is publication PMC10521975, “Species-specific cleavage of cGAS by picornavirus protease 3C disrupts mitochondria DNA-mediated immune sensing”.

For this test, the target named is SVV 3C H48A/C160A (seneca valley virus protease 3C, catalytically inactive double mutant) (seneca valley virus (SVV)). The test is described as follows: co-IP; HEK-293T cells co-transfected with plasmids expressing pcGAS and 3C for 24 h, lysed with NP-40; supernatants immunoprecipitated with mouse anti-FLAG MAb and protein A/G plus-agarose for 6 h, beads washed three times with ice-cold PBS, immunoblot. (In western blotting, separated proteins are transferred to a membrane and probed.)

These are yes or no findings as the source states them, for the method shown. In cells and extracts the contact can be indirect. A result given as binding can be weak or reduced; the word gives no strength.

B1: porcine cGAS (pcGAS) (enzyme, UniProt I3LM39 1-495)
chain: MAARRGKSTRTASEVGAAGPRASARSVNGAPTVPEAARPGARRNGPSRASGCRREKSGPDPREKPQVRTRTARAEDQAEGPSAPSERVEPPSAQGASLLRAGSCRAREARSARELRPQAGATELAAPARMEAPPGAWKLQTVLEKVRLSRHEISEAAEVVNWVVEHLLRRLQGGESEFKGVALLRTGSYYERVKISAPNEFDVMFKLEVPRIQLEEYCNSGAHYFVKFKRNPGGNPLEQFLEKEILSASKMLSKFRKIIKEEIKNIEGVTVERKRRGSPAVTLLISKPKEISVDIILALESKSSWPASTQKGLPISQWLGAKVKNNLKRQPFYLVPKHAKEGSGFQEETWRLSFSHIEKDILKNHGQSKTCCEIDGVKCCRKECLKLMKYLLEQLKKKFGNRRELAKFCSYHVKTAFFHVCTQDPHDNQWHLKNLECCFDNCVAYFLQCLKTEQLANYFIPGVNLFSRDLIDKPSKEFLSKQIEYERNNGFPVFW
For B1, the binding entry was “binds”.
